From PubChem BioAssay record AID1159506 (NCATS, 2015).

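Luminescence from an EWS-FLI1 target-promoter (NR0B1) reporter, set against a CMV-promoter reporter, two days after silencing single genes in TC32 Ewing sarcoma cells.
Each siRNA was applied at 20 nM.
A z-score of the log NR0B1-over-CMV signal, less the median of siRNAs with the same seed; more negative means a stronger specific loss of the NR0B1 reporter.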

The strongest results of the screen are mostly left out here.
Sequences are the guide (antisense) strand, without overhang.

| strand | gene | seed-corrected z-score |
|---|---|---|
| `UUAAUCCGCACAUAUUGGG` | DSC3 | -0.7587 |
| `AUGACCAUAAUAUCUAGCC` | OR4F4 | 0.2438 |
| `UGGUUGAAAACUUUCACGG` | LOC642677 | -0.01723 |
| `UUAGACACCAGUAAGUAGA` | RNF182 | -0.639 |
| `UCAUCUGGUGGUAAUAGUC` | GLI2 | -0.5655 |
| `UCUCGUACUCUUUUCAUAG` | SRSF11 | 0.1324 |
| `UCUCUCUACAUAAAAAGCU` | C1orf189 | 0.03294 |
| `AAAGCUAAGAUUGGAAUCC` | RLN1 | -0.4508 |
| `UAUUGAAUUCAUUGAGUCC` | NEK9 | -0.2373 |
| `AAAGGGACAGCUGAUCAAC` | ILVBL | -1.389 |
| `UUGCAAAAUACGGAAAAUG` | FOXN3 | -0.1633 |
| `UGUUUAACAUACAACGUAC` | SLC12A2 | -0.1655 |
| `UGAACUUCACGUUUCGUGG` | CDH5 | -1.08 |
| `UCCUCUUUAAAAAGGAGUU` | RPS10P29 | -0.1636 |
| `UUCCAUACCAUAUGCGCUG` | SLC27A2 | -0.3152 |
| `UUUCCUGCUCUUGGAAAGC` | SAMD1 | -0.8854 |
| `UACCAGUUCUCGUUCACCU` | SORBS3 | 0.9066 |
| `UAUGGAAUAAACGGUAAUC` | GSPT1 | -0.7542 |
| `AAAGUCCACAGCGACAUCU` | ZNF317 | 0.4486 |
| `UGAGAUUAUCCAUUCAUUC` | GDF10 | 0.1428 |
| `UGGGUUUUAAGCUUGCGGG` | SNRK | -0.7569 |
| `UGCUUGAUAACAGAUGCUC` | C9orf3 | 1.185 |
| `UGAGGUAGUACAGGUCUCU` | TMEM61 | -0.2414 |
| `UCAGUGCUGACACAAGCCG` | SAMD11 | -0.1344 |
| `UUCUGGAUAGCUUCCCGCU` | POP5 | -0.464 |
| `UUUCUGAUCCAUACAGCUC` | FGF9 | 0.5262 |
| `UUGGUGUAUAGGUCACUGC` | ZSWIM6 | -1.752 |
| `AUGAUGUAAACGAUAAUCG` | USP25 | -0.9956 |
| `UAUCACGACAUCAAUGCCC` | HPSE2 | -0.229 |
| `AUAGGUGUAAAUAGGGUGC` | OR4C45 | -0.0479 |
| `AAUAAUCUGAGUUGGAUGC` | YIPF7 | 0.3953 |
| `UAGUGAUCCGGUCUGGUAC` | PDE10A | 0.7717 |
| `UCUGUGCUUUCGGUCUUGG` | NUDT4 | -0.5098 |
| `ACACUUGUGAAUUCGAAGC` | SULF1 | 0.403 |
| `UGUCGAAUAAGAGAGGAGC` | ZNF215 | 0.7758 |
| `UCGGCGUAGAAAUCCAUCC` | MTURN | -1.148 |
| `UCGGAUUAAAGGCUCACUC` | MEDAG | -0.6218 |
| `UACAGCAUCUGGUACCAGC` | CLN3 | 0.02761 |
| `UUUCACAACAUAACAGGCG` | NKAIN2 | 0.6134 |
| `AUACGACCGAUAGGAACUU` | HBZ | -1.044 |
| `AUCUUGUAGACCACGAGGC` | PIEZO1 | -0.00375 |
| `UGCUUUACGGGCUUGUAGG` | RPS15 | 2.309 |
| `AAAGCUGAAGACGAACUGC` | DUSP4 | 1.187 |
| `GAAUCAUAUAUUGUAAACU` | OVOS | 0.242 |
| `UAAGAGACGAAUGUUCUCA` | ASB6 | 0.08777 |
| `UUCCUUCCUGUUUAGAUCC` | NES | -0.984 |
| `UCCUGAUUCACAUCCAAGC` | S100A13 | -0.356 |
| `UAAAUUCCACGCGCACCUG` | RPS28P6 | 0.1571 |
| `AAAGCUGACAGCUGAAGGC` | RBCK1 | -0.186 |
| `UAGGAUUGUGGAGUCGUUG` | CD37 | 0.5293 |
| `UUCCAUCUCAAAGAUAUGC` | CNTROB | 0.6466 |
| `UUCUCAAUCUGAUACGUUG` | ZNF281 | -0.3998 |
| `AACAUUAUGACAUCGUAGC` | METTL13 | 0.7938 |
| `UUCUUCAAUACCACUCUGG` | WNT8B | -0.3493 |
| `UUUACAAGCGUAUUAAUCC` | LOC653513 | -0.4654 |
| `UAACCGUAGGCGAUGGUCU` | SARDH | 0.5086 |
| `UGACUUCACAAGACACUCC` | BCKDHB | -1.114 |
| `UCCUAAGUAAGAUACGAGC` | VCL | -0.3743 |
| `AAAGUAAUACUUGAGCUUG` | YIF1B | 0.9045 |
| `UCUAGUUGCAAAGUUCGGG` | WDR3 | 0.001045 |
| `AAAUUUUUGAAAGCUGCAG` | ARHGAP36 | 1.428 |
| `UUAACUCUAAGCAGCAUCA` | LINC00312 | 0.6802 |
| `UAUUCAUUAACUUUUGUAG` | MTCP1 | 0.7929 |
| `UCAGUUAGACUACUGAGGG` | LOC389906 | -0.005711 |
| `AUCGGUGUUAAAUCCUUCC` | TMEM158 | 0.479 |
| `UGUAGUUGAGGGUAUAACC` | PARP2 | -0.8905 |
| `UCCUAGUCCAGUGUCAAAG` | EMC10 | 0.2244 |
| `UCCGGAUGCAGUAGAGUCC` | SH3BP2 | -0.3082 |
| `UACUUUUUGGUCGUGAGCC` | TSPAN1 | -0.07717 |
| `UUUUCGAUGAGCUCACUAG` | MYD88 | 0.6989 |
| `UGGUAUUCCACAGCUCGCG` | CCDC74A | -0.2045 |
| `AUUUCUAUCACCAAGGACA` | CITED2 | 0.4397 |
| `UUUUCUAGCAUUUCUCGGU` | PPM1L | -0.2074 |
| `UCAGGUCCAUUUGUCGUCU` | NAA11 | -1.142 |
| `AUAAGGACAUGGUUGCUUC` | ZC3H12B | 1.287 |
| `UAAAGGAGAAUACUAUCCC` | OR51A4 | 0.69 |
| `AUUGCUAACUCGUACAGCC` | MYRIP | 0.1083 |
| `UUGAUGACCGGCACACUCU` | HNF1A | -0.07309 |
| `UGCGAAAUGAGAGUCACCA` | BCAP31 | 0.4978 |
| `UAACAAUCAUUGUGAUUUC` | OR5M9 | 0.337 |
| `AUAGCUAGCAUCAUGAUGG` | AP3B2 | -0.6294 |
| `UAUCUUCACCUGAAGAGUU` | SLC8A2 | 0.2502 |
| `UUUGUAGAGAUAGCGGAUG` | MRPL51 | 0.9702 |
| `UCUUCUUCUUUUAAAUCGC` | DYX1C1 | 0.6654 |

Once more, the final 8:

| strand | gene | seed-corrected z-score |
|---|---|---|
| `AUUGCUAACUCGUACAGCC` | MYRIP | 0.1083 |
| `UUGAUGACCGGCACACUCU` | HNF1A | -0.07309 |
| `UGCGAAAUGAGAGUCACCA` | BCAP31 | 0.4978 |
| `UAACAAUCAUUGUGAUUUC` | OR5M9 | 0.337 |
| `AUAGCUAGCAUCAUGAUGG` | AP3B2 | -0.6294 |
| `UAUCUUCACCUGAAGAGUU` | SLC8A2 | 0.2502 |
| `UUUGUAGAGAUAGCGGAUG` | MRPL51 | 0.9702 |
| `UCUUCUUCUUUUAAAUCGC` | DYX1C1 | 0.6654 |